The values below come from PubChem BioAssay AID2685 (National Center for Advancing Translational Sciences (NCATS), 2010).

The list shows a part of the results. Further columns of the screen follow, without active or inactive calls. Most of these compounds were active or inconclusive in the main read-out, so they are no random draw. Words in brackets tell the shape of the fitted curve; partial curves, single points and poor fits give uncertain potencies.

The test can be described thus: qHTS Assay for Lipid Storage Modulators in Drosophila S3 Cells.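 For cell number change: cells counted by Cell Tracker Red CMTPX staining in the red channel.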 Conditions: BODIPY lipid droplet fluorescence, 18-24 h; for cell number change: measured here: cell count max response, cells fed with added oleic acid. In short, it runs like this:
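Drosophila S3 cells loaded with oleic acid (400 uM, as added) and compounds at several concentrations; lipid droplets imaged by 488-nm laser-scanning cytometry, 500–530 nm intensity and object ratio to cell channel. Percent activity normalized to 20 uM Triacsin C.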
(Quantitative high-throughput screening tests each substance at several concentrations.)

Setting [1] is: measured here: lipid fluorescence (Fed channel) AC50, cells fed with added oleic acid.
Where [2] appears, read: measured here: cell number channel AC50, cells fed with added oleic acid.

Turning to `O=C(O)c1ccc(S(=O)(=O)Nc2ccc(O)c(Sc3nc4ccccc4s3)c2)cc1`, the cell number change was determined as 11.8%. Besides, under setting [1], the AC50 (usually the concentration at which the activity in the assay is half-maximal) was 2.31 µM [falling, single point].

As for `O=C(CSC1=NCCN1)Nc1cccc(C(F)(F)F)c1`, the cell number change is 110%. Also, under setting [2], the AC50 is 5.8 µM [falling, single point]. Besides, the AC50 under setting [1] is 6.51 µM [falling, single point].

Take `CCCn1c(SCC(=O)Nc2nc(C)cs2)nnc1-c1cccnc1`: the cell number change turned out to be 21.3%. Also, the AC50 under setting [2] is 0.461 µM [rising, full curve, poor fit]. For the same compound, the AC50 under setting [1] is 0.411 µM [rising, full curve].

As for `O=C(c1ccncc1)c1nccn1-c1ccccn1`, the cell number change was determined as 1.82%. Besides, the AC50 under setting [1] was 13 µM [rising, partial curve].

With `CCOC(=O)N1CCN(C(=O)c2ccc(CN(c3ccccc3)S(C)(=O)=O)cc2)CC1`, the cell number change came out at 13.7%. The AC50 under setting [1] is 29.1 µM [rising, single point].

Regarding `COc1cccc(-n2c(C)nnc2SCC#N)c1`, the cell number change is -32.4%. The AC50 under setting [2] is 16.4 µM [falling, single point]. Besides, under setting [1], the AC50 was 29.1 µM [falling, single point].

Regarding `O=C(COC(=O)CNS(=O)(=O)c1ccccc1)Nc1ccc(Cl)cn1`, the cell number change was -16.4%. The AC50 under setting [2] was 3.26 µM [falling, single point].

For the compound `Cc1c(C)c2ccc(OCC(=O)N3CC[C@@]4(O)CCCC[C@H]4C3)c(C)c2oc1=O`, the cell number change was -8.74%. Under setting [1], the AC50 is 1.3 µM [falling, partial curve].

Consider `CCOC(=O)c1c(NC(=O)CSc2nnc3ccccn23)sc2c1CCC2`, for which the cell number change was determined as 29.2%. The AC50 under setting [1] was 29.1 µM [rising, single point].

As to `COC(CCN(C)C)(c1ccccc1)c1ccccc1`, the AC50 under setting [1] is 0.164 µM [falling, full curve].

As for `COc1cc(S(=O)(=O)Nc2c(C)cc(C)cc2C)ccc1Cl`, the cell number change is -11.8%. Besides, the AC50 under setting [1] is 0.058 µM [rising, full curve, poor fit].

Regarding `COc1cc(S(=O)(=O)NC2CCCCC2)ccc1F`, the cell number change was 35.5%. Moreover, under setting [2], the AC50 was 0.411 µM [rising, full curve, poor fit]. For the same compound, the AC50 under setting [1] is 0.58 µM [rising, single point].

On to `OC(CN1c2ccccc2Sc2ccccc21)Cn1nnc2ccccc21` (stereo not given), for which the cell number change was -61.9%. Also, under setting [2], the concentration at half-maximal activity (AC50) is 13 µM [falling, partial curve].

In the case of `CCc1nnc(NC(=O)CN2C(=O)c3ccccc3S2(=O)=O)s1`, the cell number change is -43.3%. Also, the AC50 under setting [2] was 13 µM [falling, partial curve]. In addition, under setting [1], the AC50 was 29.1 µM [falling, single point].

As for `COc1ccc(NC(=O)NNC(=O)c2ccc3ccccc3c2O)c(OC)c1`, the cell number change is 31.4%. The AC50 under setting [2] is 7.08 µM [rising, full curve, poor fit]. Further, under setting [1], the AC50 was 12.6 µM [rising, partial curve].

On to `CC(=O)OCC1=C(C(=O)O)N2C(=O)C(NC(=O)c3ccc(F)cc3)C2SC1` (stereo not given), for which the cell number change was -47.6%. The AC50 under setting [2] was 29.1 µM [falling, single point]. Moreover, the AC50 under setting [1] is 25.9 µM [falling, single point].

In the case of `CCN1CCCC1CNC(=O)c1cc2c(OC)cccc2[nH]1` (stereo not given), the cell number change is 13.2%. Besides, the AC50 under setting [1] is 10.3 µM [rising, single point].

Take `COc1cccc(OC)c1NC(=O)Cn1nc(-c2ccc3c(c2)OCCO3)ccc1=O`: the cell number change amounted to 3.48%. Under setting [1], the concentration at half-maximal activity (AC50) is 29.1 µM [falling, partial curve].

For the compound `Cc1cccc([C@@H]2[C@@H]3C(=O)N(Cc4ccccc4)C(=O)[C@@H]3[C@]3(Cc4ccccc4)C(=O)N(c4ccccc4)C(=O)N23)c1`, the cell number change is -3.5%. The AC50 under setting [1] was 8.2 µM [rising, partial curve].

As to `Cc1ccc(N2CC(C(=O)NCCS(=O)(=O)N3CCN(c4ccccc4)CC3)CC2=O)cc1` (stereo not given), the cell number change was 9.25%.

Take `COc1cc(OC)c(OC)cc1CNC(=O)c1ccc(S(=O)(=O)N2CCCCC2)cc1`: the cell number change was 1.65%.

As for `COc1cccc(OCC(=O)NC2CCCCC2)c1`, the cell number change turned out to be 6.98%. Moreover, the AC50 under setting [1] is 29.1 µM [rising, single point].

With `Cc1cc(C(=O)OCC(=O)NNC(=O)c2cccs2)ccc1[N+](=O)[O-]`, the cell number change is -3%.

On to `O=C(CN1C(=O)S/C(=C\c2ccc(Cl)cc2)C1=O)NC1C=CS(=O)(=O)C1` (stereo not given), for which the cell number change is -5.81%. The AC50 under setting [1] was 29.1 µM [falling, partial curve, poor fit].

As to `CCC1Oc2ccccc2N(CC(=O)NCCN2CCc3ccccc3C2)C1=O` (stereo not given), the cell number change is 19.5%. In addition, the AC50 under setting [1] was 3.66 µM [rising, partial curve].

Regarding `Cc1ccc(-n2nc3c(N4CCC(C(=O)N5CCN(C)CC5)CC4)nnc(C)c3c2C)cc1`, the cell number change is -1.49%. For the same compound, under setting [1], the AC50 was 0.116 µM [falling, full curve, poor fit].

Regarding `COc1ccc(CNC(=S)NCc2ccc(Cl)cc2)cc1OC`, the cell number change is 16.4%. For the same compound, the AC50 under setting [1] was 18.4 µM [rising, partial curve, poor fit].

Consider `O=C(O)c1ccc(-n2c(-c3cc(C4CC4)[nH]n3)n[nH]c2=S)cc1`, for which the cell number change was -2%. Also, the AC50 under setting [1] is 0.259 µM [falling, full curve, poor fit].

`COc1ccc(CCNC(=O)c2cc(S(=O)(=O)N3CCCC3)cn2C)cc1OC`: the cell number change was -29.7%. In addition, under setting [1], the AC50 is 6.51 µM [falling, single point].

As to `COC(=O)c1ccc(NC(=O)C2CCCN2C(=O)Nc2cccc(C(C)=O)c2)cc1` (stereo not given), the cell number change is 23%. For the same compound, the AC50 under setting [1] was 23.1 µM [rising, partial curve].

As for `COc1ccc(S(=O)(=O)N2CCCC(C(=O)N3CCOCC3)C2)cc1OC` (stereo not given), the cell number change is -5.13%.

Take `CCC1(c2ccccc2)NC(=O)N(CC(=O)Nc2ccc(S(=O)(=O)NC3=NCCCCC3)cc2)C1=O` (stereo not given): the cell number change was -75%. The AC50 under setting [2] is 32.6 µM [falling, partial curve, poor fit]. For the same compound, the AC50 under setting [1] is 0.651 µM [rising, single point].

For the compound `COc1ccc(/C=N/NC(=O)c2ccccc2OC)cc1COc1ccc(C)cc1`, the AC50 under setting [1] was 3.66 µM [rising, full curve].

As for `COCCCNc1nc2ccccc2nc1NS(=O)(=O)c1ccc(F)cc1`, the cell number change worked out at 26%. Besides, under setting [1], the AC50 is 0.366 µM [rising, full curve].

For the compound `COc1ccc(-c2noc(Cn3cc(S(=O)(=O)N4CCCC4)ccc3=O)n2)cc1`, the cell number change was -7.9%. Also, the AC50 under setting [2] is 0.116 µM [falling, full curve, poor fit]. Further, under setting [1], the AC50 is 14.6 µM [rising, partial curve].

For the compound `O=S(=O)(c1ccc(Br)s1)N1CCN(c2ccnc3cc(Cl)ccc23)CC1`, the cell number change is -17.6%. The AC50 under setting [1] is 29.1 µM [falling, single point].
